Drug key:
AZD7762: NC(=O)Nc1cc(-c2cccc(F)c2)sc1C(=O)N[C@H]1CCCNC1 at 0.1 µM
bortezomib: CC(C)C[C@H](NC(=O)[C@H](Cc1ccccc1)NC(=O)c1cnccn1)B(O)O at 0.005 µM
cediranib: COc1cc2c(Oc3ccc4[nH]c(C)cc4c3F)ncnc2cc1OCCCN1CCCC1 at 2 µM
PLX4720: CCCS(=O)(=O)Nc1ccc(F)c(C(=O)c2c[nH]c3ncc(Cl)cc23)c1F at 0.4 µM
tanespimycin: C=CCNC1=C2C[C@@H](C)C[C@H](OC)[C@H](O)[C@@H](C)/C=C(\C)[C@H](OC(N)=O)[C@@H](OC)/C=C\C=C(/C)C(=O)NC(=CC1=O)C2=O at 0.01 µM
lenalidomide: Nc1cccc2c1CN(C1CCC(=O)NC1=O)C2=O (centres unmarked) at 5 µM
vismodegib: CS(=O)(=O)c1ccc(C(=O)Nc2ccc(Cl)c(-c3ccccn3)c2)c(Cl)c1 at 5 µM
embelin: CCCCCCCCCCCC1=C(O)C(=O)C=C(O)C1=O at 6 µM
U73122: COc1ccc2c(c1)CCC1C2CCC2(C)C(NCCCCCCN3C(=O)C=CC3=O)CCC12 (centres unmarked) at 2 µM

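Human melanoma cell lines in 1,536-well plates were treated with a pair of drugs for 72 h, then fixed, stained and imaged. Each value is the count of nuclei relative to DMSO-treated wells, in %, so that 100 equals the control. Every drug was used at one fixed concentration, the higher of two screened. These are primary screening values without error estimates.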 Only some of the drugs and lines screened are listed, without regard to their results.

| Drugs | COLO 800 |
|---|---|
| bortezomib + lenalidomide | 89.3 |
| vismodegib + cediranib | 88.7 |
| cediranib + embelin | 55.0 |
| tanespimycin + AZD7762 | 50.4 |
| cediranib + PLX4720 | 54.4 |
| lenalidomide + PLX4720 | 108 |
| bortezomib + AZD7762 | 59.2 |
| embelin + tanespimycin | 65.3 |
| bortezomib + U73122 | 63.0 |
| tanespimycin + vismodegib | 110 |
| tanespimycin + PLX4720 | 133 |
| cediranib + tanespimycin | 49.2 |
| vismodegib + PLX4720 | 94.4 |
| bortezomib + PLX4720 | 57.1 |
| vismodegib + bortezomib | 82.0 |
| embelin + bortezomib | 125 |
| PLX4720 + U73122 | 60.1 |
| embelin + PLX4720 | 99.4 |
| vismodegib + lenalidomide | 96.4 |
| vismodegib + embelin | 128 |
| tanespimycin + lenalidomide | 133 |
| embelin + lenalidomide | 96.4 |
| U73122 + tanespimycin | 94.6 |
| U73122 + vismodegib | 104 |

For reference, 3 entries once more:

* embelin + tanespimycin | COLO 800: 65.3
* bortezomib + lenalidomide | COLO 800: 89.3
* embelin + lenalidomide | COLO 800: 96.4

Values as published with doi:10.1371/journal.pone.0140310, rounded.